Binding data for five molecules are collected here from PMC8438042.

Protein sequences, listed by entry. Tags and fused reporters are not part of them. Lines headed by an entry give the natural chain unless they say otherwise; changes in a name come on top. Chains listed by the source or under a name are the forms on record and can include a tag or linker.
UniProt E9PV87: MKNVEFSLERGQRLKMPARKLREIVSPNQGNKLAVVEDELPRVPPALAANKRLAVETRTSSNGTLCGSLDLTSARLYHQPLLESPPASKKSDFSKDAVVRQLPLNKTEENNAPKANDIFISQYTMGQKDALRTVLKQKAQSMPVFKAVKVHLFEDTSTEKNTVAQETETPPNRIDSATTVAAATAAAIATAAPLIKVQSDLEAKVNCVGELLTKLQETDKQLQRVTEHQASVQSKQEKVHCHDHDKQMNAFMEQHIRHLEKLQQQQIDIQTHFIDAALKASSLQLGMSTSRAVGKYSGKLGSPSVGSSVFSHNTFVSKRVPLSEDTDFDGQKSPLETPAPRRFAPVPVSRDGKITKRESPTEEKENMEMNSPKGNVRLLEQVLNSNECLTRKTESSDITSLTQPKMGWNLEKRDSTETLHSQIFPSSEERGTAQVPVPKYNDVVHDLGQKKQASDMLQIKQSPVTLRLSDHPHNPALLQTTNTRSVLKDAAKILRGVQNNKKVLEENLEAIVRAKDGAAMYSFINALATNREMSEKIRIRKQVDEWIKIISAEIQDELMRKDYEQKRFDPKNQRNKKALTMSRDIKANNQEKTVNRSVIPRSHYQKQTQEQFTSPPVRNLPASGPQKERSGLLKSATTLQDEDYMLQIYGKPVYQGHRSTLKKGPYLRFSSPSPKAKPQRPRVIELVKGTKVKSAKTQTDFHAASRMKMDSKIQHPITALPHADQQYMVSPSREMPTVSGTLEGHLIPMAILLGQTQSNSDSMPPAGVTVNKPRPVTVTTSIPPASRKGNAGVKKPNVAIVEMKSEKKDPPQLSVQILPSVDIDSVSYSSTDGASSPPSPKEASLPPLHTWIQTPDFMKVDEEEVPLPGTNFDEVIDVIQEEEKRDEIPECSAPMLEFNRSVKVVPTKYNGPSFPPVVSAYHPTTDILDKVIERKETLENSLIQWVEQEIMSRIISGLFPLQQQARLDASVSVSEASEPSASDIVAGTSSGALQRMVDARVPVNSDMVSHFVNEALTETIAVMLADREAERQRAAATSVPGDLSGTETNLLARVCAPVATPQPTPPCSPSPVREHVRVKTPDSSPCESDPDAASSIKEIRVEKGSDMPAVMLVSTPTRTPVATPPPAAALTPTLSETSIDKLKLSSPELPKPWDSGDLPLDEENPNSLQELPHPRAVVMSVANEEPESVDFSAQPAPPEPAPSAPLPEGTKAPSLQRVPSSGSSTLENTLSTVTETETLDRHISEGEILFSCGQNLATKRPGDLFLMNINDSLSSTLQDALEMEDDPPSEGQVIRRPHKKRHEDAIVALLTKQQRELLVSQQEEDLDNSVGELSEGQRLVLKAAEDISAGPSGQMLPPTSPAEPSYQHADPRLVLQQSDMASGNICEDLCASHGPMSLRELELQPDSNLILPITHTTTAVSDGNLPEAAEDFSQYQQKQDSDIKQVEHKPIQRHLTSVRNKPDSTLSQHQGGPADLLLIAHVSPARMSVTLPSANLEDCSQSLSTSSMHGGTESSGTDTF
FBW7β-HA (Q969H0-2, form named): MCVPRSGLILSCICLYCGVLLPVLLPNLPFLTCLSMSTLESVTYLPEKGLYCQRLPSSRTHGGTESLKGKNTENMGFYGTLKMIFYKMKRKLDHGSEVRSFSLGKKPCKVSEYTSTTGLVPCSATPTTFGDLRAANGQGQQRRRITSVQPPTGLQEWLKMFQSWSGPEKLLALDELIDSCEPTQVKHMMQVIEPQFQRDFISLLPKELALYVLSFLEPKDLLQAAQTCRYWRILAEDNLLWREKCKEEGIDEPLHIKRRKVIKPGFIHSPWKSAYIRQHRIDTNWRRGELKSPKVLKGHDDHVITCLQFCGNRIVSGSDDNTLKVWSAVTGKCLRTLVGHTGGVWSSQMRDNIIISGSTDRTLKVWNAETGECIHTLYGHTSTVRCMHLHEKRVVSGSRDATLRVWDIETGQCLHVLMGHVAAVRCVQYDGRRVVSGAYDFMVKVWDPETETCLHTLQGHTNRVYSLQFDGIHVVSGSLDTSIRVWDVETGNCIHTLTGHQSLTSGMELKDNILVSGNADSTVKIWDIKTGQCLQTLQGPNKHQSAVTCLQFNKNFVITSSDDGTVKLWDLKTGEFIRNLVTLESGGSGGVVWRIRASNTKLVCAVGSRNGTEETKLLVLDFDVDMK
FBW7γ-HA (Q969H0-4, form named): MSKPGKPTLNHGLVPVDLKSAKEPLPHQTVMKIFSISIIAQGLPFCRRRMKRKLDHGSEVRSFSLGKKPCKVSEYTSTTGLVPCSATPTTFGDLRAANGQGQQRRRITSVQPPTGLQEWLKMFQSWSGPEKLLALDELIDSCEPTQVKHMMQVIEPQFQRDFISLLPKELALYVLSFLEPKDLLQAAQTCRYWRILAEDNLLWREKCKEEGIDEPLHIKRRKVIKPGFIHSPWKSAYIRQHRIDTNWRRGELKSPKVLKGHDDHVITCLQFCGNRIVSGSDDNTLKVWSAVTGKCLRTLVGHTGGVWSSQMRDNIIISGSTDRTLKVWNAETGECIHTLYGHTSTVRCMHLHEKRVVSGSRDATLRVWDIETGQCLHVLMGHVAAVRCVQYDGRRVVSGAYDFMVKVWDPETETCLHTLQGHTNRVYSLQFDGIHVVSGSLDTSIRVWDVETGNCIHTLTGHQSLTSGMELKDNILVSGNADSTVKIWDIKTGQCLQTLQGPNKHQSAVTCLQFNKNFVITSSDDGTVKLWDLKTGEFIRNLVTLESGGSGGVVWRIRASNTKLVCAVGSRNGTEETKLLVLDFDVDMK
UniProt P10070: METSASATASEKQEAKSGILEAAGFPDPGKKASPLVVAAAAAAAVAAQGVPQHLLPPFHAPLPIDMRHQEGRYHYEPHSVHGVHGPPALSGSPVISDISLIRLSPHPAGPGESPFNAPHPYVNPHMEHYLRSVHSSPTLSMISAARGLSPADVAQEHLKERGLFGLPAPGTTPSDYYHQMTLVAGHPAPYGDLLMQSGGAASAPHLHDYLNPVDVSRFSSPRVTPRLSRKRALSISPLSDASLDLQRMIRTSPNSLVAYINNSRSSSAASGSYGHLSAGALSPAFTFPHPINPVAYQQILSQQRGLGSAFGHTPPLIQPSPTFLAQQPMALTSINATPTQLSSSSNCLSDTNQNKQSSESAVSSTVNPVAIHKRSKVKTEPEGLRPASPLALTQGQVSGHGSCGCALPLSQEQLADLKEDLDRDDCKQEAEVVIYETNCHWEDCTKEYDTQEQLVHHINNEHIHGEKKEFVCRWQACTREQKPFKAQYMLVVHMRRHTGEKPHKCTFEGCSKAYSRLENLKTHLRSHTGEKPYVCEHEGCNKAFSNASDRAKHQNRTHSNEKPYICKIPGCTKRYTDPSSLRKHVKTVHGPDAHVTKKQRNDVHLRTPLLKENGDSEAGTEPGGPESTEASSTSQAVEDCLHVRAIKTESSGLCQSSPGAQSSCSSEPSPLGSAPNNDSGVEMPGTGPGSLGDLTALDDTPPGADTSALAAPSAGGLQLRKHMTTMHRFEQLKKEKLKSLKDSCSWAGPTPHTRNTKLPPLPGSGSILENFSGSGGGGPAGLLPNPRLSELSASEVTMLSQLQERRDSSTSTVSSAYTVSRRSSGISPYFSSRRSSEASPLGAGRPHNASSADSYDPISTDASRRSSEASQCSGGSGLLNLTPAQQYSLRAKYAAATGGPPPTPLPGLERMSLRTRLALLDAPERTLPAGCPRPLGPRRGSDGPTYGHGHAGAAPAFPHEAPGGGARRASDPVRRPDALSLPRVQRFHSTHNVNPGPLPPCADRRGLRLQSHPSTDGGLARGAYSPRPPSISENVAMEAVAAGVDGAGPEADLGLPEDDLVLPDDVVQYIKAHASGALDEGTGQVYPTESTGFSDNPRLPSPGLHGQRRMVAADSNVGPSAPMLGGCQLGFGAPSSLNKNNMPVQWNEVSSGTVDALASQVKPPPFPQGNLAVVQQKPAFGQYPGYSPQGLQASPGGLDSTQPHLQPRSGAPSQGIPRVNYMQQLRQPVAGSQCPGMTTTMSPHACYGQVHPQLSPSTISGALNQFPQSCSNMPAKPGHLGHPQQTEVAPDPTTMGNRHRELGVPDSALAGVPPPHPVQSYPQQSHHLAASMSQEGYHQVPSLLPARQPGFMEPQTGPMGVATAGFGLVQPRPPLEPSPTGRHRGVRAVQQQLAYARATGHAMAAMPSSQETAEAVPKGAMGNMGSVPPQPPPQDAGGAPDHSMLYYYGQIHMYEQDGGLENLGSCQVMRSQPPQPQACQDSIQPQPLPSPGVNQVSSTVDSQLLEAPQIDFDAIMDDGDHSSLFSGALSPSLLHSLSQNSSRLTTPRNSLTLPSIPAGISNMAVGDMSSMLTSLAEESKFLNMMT

No constants are given. Whether binding was seen depends on the method and setting. In cells and extracts the contact can be indirect. Some binding calls cover weakened binding; strength is not graded here. For some assays here: Tags and fused reporters may be left off the sequences shown.

The target in one test is TALPID3-DDK-MYC (mouse) (UniProt E9PV87). Briefly: co-IP; HEK293T cells transiently transfected; lysates incubated either with a-TALPID3 or with a-HA overnight, Protein G Sepharose beads 3 h at 4 °C, Western blot. On the technique in general: A western blot detects proteins with antibodies after separation by electrophoresis.
A further test has as its target T1, NDE1-FLAG (human) (UniProt Q9NXR1).
T1 sequence: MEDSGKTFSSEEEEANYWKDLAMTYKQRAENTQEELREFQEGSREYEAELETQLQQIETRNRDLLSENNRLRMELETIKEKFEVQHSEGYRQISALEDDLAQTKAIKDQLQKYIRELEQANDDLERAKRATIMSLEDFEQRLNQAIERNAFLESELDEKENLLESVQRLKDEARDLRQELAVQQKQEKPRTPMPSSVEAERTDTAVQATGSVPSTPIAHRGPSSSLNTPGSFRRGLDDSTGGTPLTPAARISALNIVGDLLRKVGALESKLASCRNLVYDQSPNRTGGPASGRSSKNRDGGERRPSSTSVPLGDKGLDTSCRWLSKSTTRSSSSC
Put plainly: co-IP; HEK293T cells transiently transfected; lysates (1% Triton X-100, 150 mM NaCl, 10 mM Tris-HCl pH 7.5) incubated with the FLAG antibody overnight, Protein G Sepharose beads 3 h at 4 °C, Western blot.

The target of test [1] is bacterial alkaline phosphatase (FLAG-BAP) [phosphatase: P00634]. The test is described as above.

Regarding FBW7α-HA (from UniProt Q969H0-1 1-707), the binding result in the test with TALPID3-DDK-MYC (mouse) was “binds”.

FBW7β-HA (from UniProt Q969H0-2 1-627): the binding entry with TALPID3-DDK-MYC (mouse) is listed as “binds”. As to FBW7γ-HA (from UniProt Q969H0-4 1-589), the binding result in the test with TALPID3-DDK-MYC (mouse) was “binds”. For GLI2-myc (from UniProt P10070 1-1586), the binding entry with NDE1-FLAG (human) is on record as “binds”.

B1: NDE1-FLAG (protein, UniProt Q9NXR1 1-335)
chain: MEDSGKTFSSEEEEANYWKDLAMTYKQRAENTQEELREFQEGSREYEAELETQLQQIETRNRDLLSENNRLRMELETIKEKFEVQHSEGYRQISALEDDLAQTKAIKDQLQKYIRELEQANDDLERAKRATIMSLEDFEQRLNQAIERNAFLESELDEKENLLESVQRLKDEARDLRQELAVQQKQEKPRTPMPSSVEAERTDTAVQATGSVPSTPIAHRGPSSSLNTPGSFRRGLDDSTGGTPLTPAARISALNIVGDLLRKVGALESKLASCRNLVYDQSPNRTGGPASGRSSKNRDGGERRPSSTSVPLGDKGLDTSCRWLSKSTTRSSSSC
Turning to B1, the binding entry in test [1] is on record as “no binding”.
